Here are results for 42 sequences from paper PMC7819943, “Rice protein-binding microarrays: a tool to detect cis-acting elements near promoter regions in rice”.

Sequences of proteins named here, by UniProt entry; tags and fusion partners are left off.
UniProt Q0JBA9, entry or part of it: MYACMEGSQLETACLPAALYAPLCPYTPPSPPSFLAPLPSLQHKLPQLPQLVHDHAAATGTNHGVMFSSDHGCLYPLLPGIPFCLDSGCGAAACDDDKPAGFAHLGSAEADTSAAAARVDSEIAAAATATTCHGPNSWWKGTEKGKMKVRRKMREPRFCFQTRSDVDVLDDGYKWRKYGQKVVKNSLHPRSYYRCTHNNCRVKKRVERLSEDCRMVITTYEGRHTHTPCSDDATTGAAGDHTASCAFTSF

The list shows a part of the results.

This test concerns the target OsWRKY34 (Oryza sativa, UniProt Q0JBA9 1-250). Put plainly: protein-binding microarray (RPBM); PBS, 2% BSA, 51.3 ng/ul salmon testes DNA, 50 uM zinc acetate, 200 nM TF, 25 C, 1 h; high values mean tight binding. The note with it: protein: recombinant; tags: N-terminal polyhistidine and DsRed monomer fusion (pET32a); label: CyDye5-dUTP incorporated in the synthesized complementary strand; 3' TTTTT single-stranded linker to array surface; dsDNA, one strand shown. In a few lines:
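Per-feature fluorescence intensity (arbitrary units), read on an Axon 4000B scanner, is the binding signal. Transcription factors carrying an N-terminal polyhistidine tag and DsRed fusion were expressed in E. coli BL21-CodonPlus and purified on Ni–NTA. A custom Agilent array, made double-stranded by primer extension with Cy5-dUTP and blocked with 2% BSA, was incubated with 200 nM protein in PBS, 2% BSA, salmon testes DNA and 50 µM zinc acetate at 25 °C for 1 h and then washed.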
Turning to “CTGGTAAACATTAGGCTACATATCCTTTCGCTTTTCTTCTCGGAGTCACCTAGTGCAG”, the binding signal is 11400 fluorescence intensity (a.u.). The figure for “TGTTGGTTTGGTGTGAAAGAGAAGAGAGAGGCTTTTGCTCCGGAGTCACCTAGTGCAG” is 11900 fluorescence intensity (a.u.); for “CGTCAACCCTTTGCCTTTGTTAGCGAGCTAGCGTGTACACCGGAGTCACCTAGTGCAG” it is 9190 fluorescence intensity (a.u.). Consider “GAAATCTCATCCGTTTTTTTTTGATTTGAGGTCTCCTACCCGGAGTCACCTAGTGCAG”, for which the binding signal was 8400 fluorescence intensity (a.u.). Take “GCCCACACGAAGCTTACGTACACTTCTTGGTCTCGAGCCGCGGAGTCACCTAGTGCAG”: the binding signal is 11500 fluorescence intensity (a.u.).

As to “TCTCTCTGTAATTTTGGTTTGATGCCAATTATCGGCTTACCGGAGTCACCTAGTGCAG”, the binding signal is 8040 fluorescence intensity (a.u.). Then “GGTCTTTGAAGTCCTTGTGTTCTCCATGCCCTACAAATGACGGAGTCACCTAGTGCAG”, with 9210 fluorescence intensity (a.u.); and “TGGCTGGTGTTGAATTCATTGTGCATCCAACGGTCATTATCGGAGTCACCTAGTGCAG”, with 11400 fluorescence intensity (a.u.); and “GTTTCATTGAGATGGTGTCGACGTGGCGGCGTTGACTTAGCGGAGTCACCTAGTGCAG”, with 10700 fluorescence intensity (a.u.).

Turning to “GGCCTGTAGACACCTTTGTATACCTTTTTCCACATCTTAACGGAGTCACCTAGTGCAG”, the binding signal is 9440 fluorescence intensity (a.u.). Then “AACTCTAATTTACTGTTGGTTGGTGCAATATCAGATGGATCGGAGTCACCTAGTGCAG”, with 8900 fluorescence intensity (a.u.); and “GACCATTATACGCGGTTGCCTACATAGCCTCAAATTATGTCGGAGTCACCTAGTGCAG”, with 8260 fluorescence intensity (a.u.); and “CTACAAACACAAATTGCATATACACTCTTAGGTTCTGTATCGGAGTCACCTAGTGCAG”, with 11000 fluorescence intensity (a.u.). Regarding “CACTAATGGCTGACAATTACTACTTCTGACCACTCATACTCGGAGTCACCTAGTGCAG”, the binding signal is 9490 fluorescence intensity (a.u.). The figure for “TCAAGTTTTATGTAATGCAGATTTTACCTTTGTATTTCACCGGAGTCACCTAGTGCAG” is 8840 fluorescence intensity (a.u.); for “GGGCTTCTTTTTGGGTCGAGAATATTTTGGGCTTAAGGGCCGGAGTCACCTAGTGCAG” it is 8390 fluorescence intensity (a.u.).

As to “TGTTACATGTTTAATAGTGTGTGTGGGTGTGTGTCTAATGCGGAGTCACCTAGTGCAG”, the binding signal is 8290 fluorescence intensity (a.u.). Then “AACCTCATCATCCATCCCTCATCGCGGAGCTGCAACCAGTCGGAGTCACCTAGTGCAG”, with 11100 fluorescence intensity (a.u.); and “CCGATTGGACCCGTGACGTCCTTGCGCGCGTGATTTGCCACGGAGTCACCTAGTGCAG”, with 8860 fluorescence intensity (a.u.); and “CTTACGCCCGCCGATCGCTTCTCCCTCAACTCACACCCTTCGGAGTCACCTAGTGCAG”, with 9630 fluorescence intensity (a.u.).

Consider “GTACACCACCGAAACCCTAATTAACCATTTCTCGCTCATCCGGAGTCACCTAGTGCAG”, for which the binding signal was 8040 fluorescence intensity (a.u.). With “CCTCGTACGTGTTGGTGTTGCCAAGCCCAAGCCAGTAGTACGGAGTCACCTAGTGCAG”, the binding signal is 8990 fluorescence intensity (a.u.).

Consider “GGCCGTGTACTGACTCAGGGTTTACATTACCGGTTGACCACGGAGTCACCTAGTGCAG”, for which the binding signal was 9730 fluorescence intensity (a.u.).

As for “TTTTTCCTGTGTTTTACAATCCTCTGTTTTGCACTTGCATCGGAGTCACCTAGTGCAG”, the binding signal was 8830 fluorescence intensity (a.u.). Then “TCAACCCAACAACCGCCGGTGCCGTCATTCTGCATCCCTCCGGAGTCACCTAGTGCAG”, with 12100 fluorescence intensity (a.u.).

“GTCTCAGTATCCTGCTCGTCCTAGTCTTCTTACTCCATCTCGGAGTCACCTAGTGCAG”: the binding signal was 9140 fluorescence intensity (a.u.). For “TGGATCTTGTTGCCATCTCGGTTTTTCTTTTTTTCTTTTGCGGAGTCACCTAGTGCAG”, the binding signal is 11000 fluorescence intensity (a.u.). Then “TGGCCTGTTCACTTTGATGCTATTTTTAACCTTACCAAATCGGAGTCACCTAGTGCAG”, with 10700 fluorescence intensity (a.u.). As for “ATCCTCGCTCACTTTCCATCTCACACGACGGCCACACTGACGGAGTCACCTAGTGCAG”, the binding signal is 12700 fluorescence intensity (a.u.). “ATATTCCTTACTTTTTAATTCCTAATTTCTATTTTTTTTCCGGAGTCACCTAGTGCAG”: the binding signal is 8190 fluorescence intensity (a.u.).

For “CCCATTCCAAGCTTTGACTTCTCACTAGCTTGACTACTGGCGGAGTCACCTAGTGCAG”, the binding signal is 8040 fluorescence intensity (a.u.). Then “GAGCTCCTACGCGTCGCCATCTCCTTCATCAACCACAAAACGGAGTCACCTAGTGCAG”, with 9980 fluorescence intensity (a.u.). The figure for “AGGTGGGCCCGAAGTCTAAACCCTACTATTCCCAGATTCCCGGAGTCACCTAGTGCAG” is 8200 fluorescence intensity (a.u.); for “ACTTTTCTACACACATAAACTTCTAACTTTTTCATCACATCGGAGTCACCTAGTGCAG” it is 13400 fluorescence intensity (a.u.); for “CATGGGAATTTTGGTGGGATGGGGATGGAGAATTGAGCAACGGAGTCACCTAGTGCAG” it is 8700 fluorescence intensity (a.u.). As to “CACCTATGCGTGCCTAAGCGTGTGTTCGTTTCTTTCTAGCCGGAGTCACCTAGTGCAG”, the binding signal is 9730 fluorescence intensity (a.u.).

Turning to “GCAAGTCTACTGTCTACCCCACTCGTCGCGCTTCAGAGTCCGGAGTCACCTAGTGCAG”, the binding signal is 8990 fluorescence intensity (a.u.). Then “GCGATTTAACTTTTTTTTTTCTCTGTGACATTTCGTTACCCGGAGTCACCTAGTGCAG”, with 9000 fluorescence intensity (a.u.).

As for “AGGGAGGCGTAGGTTGTGGTCGTTGTTGCGGTTTGGAGTTCGGAGTCACCTAGTGCAG”, the binding signal was 8250 fluorescence intensity (a.u.). Then “GTCTTCTAGCTGCAGCCAGTTTCATGCTTATCACCGCCTACGGAGTCACCTAGTGCAG”, with 8440 fluorescence intensity (a.u.). The figure for “GTGCTGTTCTTAATAGAGTATTCCAACCTTATGAGTCTCACGGAGTCACCTAGTGCAG” is 9790 fluorescence intensity (a.u.); for “AAGTTTTCAACACTCCTCTTTCGTTTTCCGCATGCACGTTCGGAGTCACCTAGTGCAG” it is 8180 fluorescence intensity (a.u.).
